Source: PubChem BioAssay AID1347423 (Functional Genomics Laboratory (NCATS/FGL), 2020)
Screen size: about 52,000 sequences; about 210 (0.4%) were called active.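 The calls were made as follows: active = gene whose silencing raises cell survival under the drug, median off-target-corrected z-score across its silencing RNAs 2 or more; inactive = the rest.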 The list shows a part of the results.

assay: Resistance to Poly (ADP-Ribose) Polymerase inhibitor: Gene Identification via Genome-wide siRNA Screen; conditions: mouse BRCA2 R2336H ES cells, olaparib, CellTiter-Glo viability; hits give high values
Method in brief: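 Mouse BRCA2 R2336H ES cells were reverse-transfected with siRNA (20 nM final), treated at 48 h with 500 nM olaparib, and read by CellTiter-Glo after 72 h. Scores: MAD-based z per siRNA, median per gene, seed off-target correction.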

Row | Sequence | z-score
1 | GCAGCGUAAACAUUGUAACTT against Pkib | inactive: 0.423
2 | GCGGACACAUCGAGUUUUGTT against Epor | inactive: -0.473
3 | GGAGGGUACUGUUAUUUUUTT against Defb9 | inactive: 1.37
4 | GGUAUCAGUAGCUGAUGUGTT against Pde8a | inactive: -1.17
5 | GAGGCUGUCUGCUUCAUCCTT against Mrps12 | inactive: -0.000859
6 | CCAACUGGUAAUCUUCACATT against Olfr3 | inactive: 0.849
7 | GCUUAUGUUGUUGUGCAUUTT against Zfyve21 | inactive: 0.123
8 | GCUCUCGGAAUGAUUUAUATT against Acas2l | inactive: 0.157
9 | GCCAAAUGACCUUCAGUGUTT against Klk24 | inactive: -0.893
10 | CCUAUUUUCUAUGUUGCCUTT against Cnil | inactive: 0.342
11 | GCCAUCGUGAGAAGACUUCTT against Nt5c3 | inactive: -0.307
12 | CCUCAUCGAAUUCGAUACCTT against Arrb2 | inactive: 1.25
13 | GGAUGACUGGAACUUCCUCTT against Kcnk1 | inactive: 1.66
14 | GCCCAUGACAUUCUCCAUUTT against Cdh17 | inactive: 0.695
15 | GGAACAGCUCAACACAAGATT against Adam11 | inactive: 0.454
16 | GGCAUCCCUCUAGAGAACATT against Erbb2ip | inactive: 0.358
17 | GGCUCUAUAUCUAUACUGATT against Srst | inactive: -0.528
18 | CCGGAUUCGAGAGGUGAUGTT against 4930413P14Rik | inactive: -1.58
19 | GGUGGUUGCCUUUAUGAAGTT against 8430420C20Rik | inactive: 0.98
20 | GGUUUUAGUAUGUAGUGUUTT against Pxt1 | inactive: 0.485
21 | GGAAAGGGACCAAUUCAGATT against Fv1 | inactive: 0.00626
22 | UCAUUCUACCUGGAACCGGTT against Gm691 | inactive: -1.71
23 | CCUAUGAAGCAAUUUGAUCTT against Lnx2 | inactive: 0.81
24 | GCUUCAUUUGUGCCUCUAUTT against 4932417H02Rik | inactive: -0.443
25 | GGCGACUUGUGCCUAACUUTT against LOC406217 | inactive: 1.49
26 | CGACAUCAAAUACGGAUCUTT against Sdf2l1 | inactive: -0.322

Row | Sequence | z-score
27 | CCAGCUUAAUGAGUUCAUGTT against Abca7 | inactive: -0.525
28 | GCAUGAGACUAUGCACCUATT against Snca | inactive: -0.183
29 | GCACUAUCGUUUUUCAAUCTT against B130008E12Rik | inactive: -0.00146
30 | CGAGAAUUUUACAUGAGAGTT against Fthfsdc1 | inactive: -0.0647
31 | GGACCUCAUUGUUUAGUCATT against Cmya5 | inactive: -0.607
32 | GGAUAUCGGGAUGAAAUUGTT against Meig1 | inactive: -1.34
33 | GAUGUGUGCUCAUGGUUUUTT against Olfr622 | inactive: 0.281
34 | GGUCUCCAUGAGUUUGAUUTT against Pik3cd | inactive: -0.713
35 | GGUCAACCACAGCUACUGCTT against Pias4 | inactive: -0.422
36 | GGUACCAUUCAGCAAUAAGTT against Muc19 | inactive: -0.618
37 | GGCUCUGGACCAACUACUATT against A830043J08Rik | inactive: -1.48
38 | CCAGUGUGAAAUGAUCCUUTT against Hddc2 | inactive: 1.68
39 | GGACUUCUCCAAUGACCUGTT against Creb3l1 | inactive: 2.51
40 | GCAAUCAUUAAGCAGAUCATT against Prkce | inactive: -2.49
41 | GCACGUUAGUAAGUAGUUATT against 9630054F20Rik | inactive: -0.343
42 | GGCAACAGUUGGCUAUCUUTT against Entpd7 | inactive: 0.128
43 | GAUCUUACUCAGCAGACCUTT against Ifna2 | inactive: 1.72
44 | GGACAAGCAUGUUUUCUGCTT against V1rb7 | inactive: -0.509
45 | GCGUAUGCCAAGGAACUCATT against 1110051M20Rik | inactive: -0.963
46 | GCGGAUUAACCUCUGUGGCTT against Gm580 | inactive: 0.574
47 | GGUGAUCUAUCCCUAUUCATT against 2810457I06Rik | inactive: -1.56
48 | CCAGGUCUUAAUUACAGAGTT against Capza1 | inactive: -0.351
49 | GGAAGAUGCCUACUUCAGATT against 4632433K11Rik | inactive: -0.892
50 | GGCAGCAGUUAAUUUACUUTT against Mmp21 | inactive: -1.35
51 | GGCCUGCUACUUUUGAUGCTT against Olfr166 | inactive: -0.523
52 | GGAAGUUCGUGGAAGGCAATT against Pck1 | inactive: -0.614

Looked up one by one from above:
Row | Sequence | z-score
38 | CCAGUGUGAAAUGAUCCUUTT against Hddc2 | inactive: 1.68
52 | GGAAGUUCGUGGAAGGCAATT against Pck1 | inactive: -0.614
